From paper PMC13065327
Like-named read-outs stand apart in the source and are kept apart here. Results are given in words; binding and its absence hold for the method and conditions named. Binding seen in cells or lysates may run through a third protein. A yes stands for co-enrichment or nearness to the bait. Other partners may have been found. Tags and fused reporters may be left off the sequences shown. Each block holds one molecule with its values, some of them ahead of it.

The chains behind the UniProt entries cited, without tags or fusion partners.
UniProt P36012: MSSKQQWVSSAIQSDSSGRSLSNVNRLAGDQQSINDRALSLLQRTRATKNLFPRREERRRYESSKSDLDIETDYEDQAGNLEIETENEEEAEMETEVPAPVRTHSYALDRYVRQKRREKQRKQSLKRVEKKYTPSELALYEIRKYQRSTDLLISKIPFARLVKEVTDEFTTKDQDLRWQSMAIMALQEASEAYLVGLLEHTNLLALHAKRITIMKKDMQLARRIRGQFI
UniProt P40460: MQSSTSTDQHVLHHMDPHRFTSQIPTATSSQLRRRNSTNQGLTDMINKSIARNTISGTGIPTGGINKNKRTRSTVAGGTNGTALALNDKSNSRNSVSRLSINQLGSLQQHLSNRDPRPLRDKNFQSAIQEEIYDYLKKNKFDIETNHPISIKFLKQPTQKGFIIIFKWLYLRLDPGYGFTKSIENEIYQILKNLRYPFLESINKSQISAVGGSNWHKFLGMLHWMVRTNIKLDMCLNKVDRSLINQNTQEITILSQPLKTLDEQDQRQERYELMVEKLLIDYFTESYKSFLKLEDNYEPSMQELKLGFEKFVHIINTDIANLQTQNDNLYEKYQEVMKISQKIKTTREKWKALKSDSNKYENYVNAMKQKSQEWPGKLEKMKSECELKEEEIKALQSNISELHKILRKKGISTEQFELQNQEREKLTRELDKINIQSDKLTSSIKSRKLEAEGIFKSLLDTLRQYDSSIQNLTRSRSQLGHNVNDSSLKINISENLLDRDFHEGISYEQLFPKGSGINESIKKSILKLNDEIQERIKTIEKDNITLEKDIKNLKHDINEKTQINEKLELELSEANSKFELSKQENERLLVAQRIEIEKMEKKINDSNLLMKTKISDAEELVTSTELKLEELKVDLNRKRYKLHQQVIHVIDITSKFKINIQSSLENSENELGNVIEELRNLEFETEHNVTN
UniProt P47037: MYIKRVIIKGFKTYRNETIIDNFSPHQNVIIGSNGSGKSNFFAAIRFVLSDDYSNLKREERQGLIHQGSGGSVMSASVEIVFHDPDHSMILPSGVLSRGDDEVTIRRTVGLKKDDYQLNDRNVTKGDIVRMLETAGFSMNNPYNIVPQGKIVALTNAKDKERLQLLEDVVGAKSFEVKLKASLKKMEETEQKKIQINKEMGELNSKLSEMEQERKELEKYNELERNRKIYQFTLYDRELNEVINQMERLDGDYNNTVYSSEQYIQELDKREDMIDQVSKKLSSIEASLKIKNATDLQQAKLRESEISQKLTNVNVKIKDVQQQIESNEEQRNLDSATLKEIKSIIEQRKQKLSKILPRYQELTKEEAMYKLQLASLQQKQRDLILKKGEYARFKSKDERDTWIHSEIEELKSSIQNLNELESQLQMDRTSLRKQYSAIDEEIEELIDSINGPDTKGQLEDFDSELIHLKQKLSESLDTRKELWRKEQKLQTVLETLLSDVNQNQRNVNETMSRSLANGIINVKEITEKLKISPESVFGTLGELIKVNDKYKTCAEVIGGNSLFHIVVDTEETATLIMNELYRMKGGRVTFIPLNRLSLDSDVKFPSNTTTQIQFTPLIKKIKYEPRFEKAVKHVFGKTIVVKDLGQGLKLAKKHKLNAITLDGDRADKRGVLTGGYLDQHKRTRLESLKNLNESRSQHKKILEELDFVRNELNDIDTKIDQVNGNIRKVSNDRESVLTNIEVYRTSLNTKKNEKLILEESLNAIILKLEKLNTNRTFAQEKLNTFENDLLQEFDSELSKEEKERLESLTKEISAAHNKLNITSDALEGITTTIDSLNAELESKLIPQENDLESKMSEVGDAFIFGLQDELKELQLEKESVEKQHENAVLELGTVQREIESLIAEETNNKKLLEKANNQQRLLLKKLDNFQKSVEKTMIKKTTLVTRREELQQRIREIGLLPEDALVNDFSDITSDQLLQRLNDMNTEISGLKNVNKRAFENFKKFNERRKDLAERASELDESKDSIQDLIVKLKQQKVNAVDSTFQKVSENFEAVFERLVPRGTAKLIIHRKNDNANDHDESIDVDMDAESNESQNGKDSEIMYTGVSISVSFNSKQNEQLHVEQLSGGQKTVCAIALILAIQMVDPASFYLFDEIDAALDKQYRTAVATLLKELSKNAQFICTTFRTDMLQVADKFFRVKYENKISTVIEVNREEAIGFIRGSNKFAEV
UniProt P35201: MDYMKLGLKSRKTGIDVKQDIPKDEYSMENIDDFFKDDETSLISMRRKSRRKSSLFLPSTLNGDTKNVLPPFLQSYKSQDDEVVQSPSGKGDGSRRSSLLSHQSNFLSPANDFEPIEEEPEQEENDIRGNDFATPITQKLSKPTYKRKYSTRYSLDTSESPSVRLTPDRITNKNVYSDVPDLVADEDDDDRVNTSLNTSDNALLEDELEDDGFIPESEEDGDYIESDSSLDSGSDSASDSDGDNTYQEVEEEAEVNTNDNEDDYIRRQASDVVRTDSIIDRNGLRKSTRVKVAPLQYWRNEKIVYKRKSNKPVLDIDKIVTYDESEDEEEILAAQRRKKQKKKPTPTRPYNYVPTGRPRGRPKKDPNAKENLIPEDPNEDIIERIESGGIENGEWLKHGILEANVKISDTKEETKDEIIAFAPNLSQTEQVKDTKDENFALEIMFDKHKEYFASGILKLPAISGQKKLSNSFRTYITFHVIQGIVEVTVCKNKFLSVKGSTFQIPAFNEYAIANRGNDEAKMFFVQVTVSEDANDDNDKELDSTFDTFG

Key:
Experiment in all cases: affinity purification with mass spectrometry; anti-FLAG antibody on Protein G Dynabeads, Dsn1-6His-3FLAG from lysates of SK1 cells at mitotic metaphase, meiotic prophase, metaphase I and metaphase II (SynSAC, 250 uM ABA); BH0.15 buffer (150 mM KCl, 25 mM HEPES-KOH pH 8.0, 2 mM MgCl2, 0.1% NP-40), 3 hr at 4 C; DIA-MS of eluates, 95% phospho-enriched; no tag control
[1] = molecular target: T1, Dsn1-6His-3FLAG (S. cerevisiae) (UniProt P40568)
T1 sequence: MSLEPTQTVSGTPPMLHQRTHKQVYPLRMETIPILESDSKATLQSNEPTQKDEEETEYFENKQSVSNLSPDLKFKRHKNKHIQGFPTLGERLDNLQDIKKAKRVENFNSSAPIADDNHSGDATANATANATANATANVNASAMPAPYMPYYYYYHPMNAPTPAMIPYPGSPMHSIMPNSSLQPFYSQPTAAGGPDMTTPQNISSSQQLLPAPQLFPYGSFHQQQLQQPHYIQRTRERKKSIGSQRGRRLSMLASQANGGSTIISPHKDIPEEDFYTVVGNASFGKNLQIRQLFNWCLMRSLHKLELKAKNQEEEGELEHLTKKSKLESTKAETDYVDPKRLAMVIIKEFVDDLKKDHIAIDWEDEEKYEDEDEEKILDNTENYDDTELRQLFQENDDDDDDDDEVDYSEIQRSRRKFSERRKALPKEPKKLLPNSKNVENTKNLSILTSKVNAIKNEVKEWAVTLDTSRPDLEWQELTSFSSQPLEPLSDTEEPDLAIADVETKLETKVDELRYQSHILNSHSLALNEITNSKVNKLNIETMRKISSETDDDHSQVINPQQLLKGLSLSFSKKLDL

[2] = molecular target: T2, Dsn1-6His-3FLAG (S. cerevisiae), P40568; details: remark: other sources report otherwise
T2 chain: T1 sequence

[3] = molecular target: T1, Dsn1-6His-3FLAG (S. cerevisiae); remark: listed apart in the source

Molecule: Cse4 (from UniProt P36012 1-229)
binding [1]: binds

B2: Glc7, P32598 1-312 (enzyme)
chain: MDSQPVDVDNIIDRLLEVRGSKPGQQVDLEENEIRYLCSKARSIFIKQPILLELEAPIKICGDIHGQYYDLLRLFEYGGFPPESNYLFLGDYVDRGKQSLETICLLLAYKIKYPENFFILRGNHECASINRIYGFYDECKRRYNIKLWKTFTDCFNCLPIAAIIDEKIFCMHGGLSPDLNSMEQIRRVMRPTDIPDVGLLCDLLWSDPDKDIVGWSENDRGVSFTFGPDVVNRFLQKQDMELICRAHQVVEDGYEFFSKRQLVTLFSAPNYCGEFDNAGAMMSVDESLLCSFQILKPAQKSLPRQAGGRKKK
binding [2]: binds

B3: Mam1 (protein, UniProt P40065 1-302)
chain: MREKRTISNKDTNYLKFPNKLQRYSRFLSRKISNTSPEKQPKKNIKEHCLSSYHKEHSVKPKQNSGNVAAKEDKDTQHLQNNVANEEATECLTRSNLKKLQEKIFDRELNDIACDHCLCSTENRRDIKYSRLWFLFELEMSENWNENLRLSCYNKYVYSAIDESWKMENILLKEQEKHYEYFPIGQLLIPNNIDYTNKQKRKENIEDLTIEIDSIIETNHQKKRFLPQSVLIKREDEIAFDDFHLDARKVLNDLSATSENPFSSSPNTKKIKSKGKTLEVVPKKKNKKIIGALERKLHIDEN
binding [3]: binds

Next, values leading:

binding [1]: binds
Molecule: Ndc80 (from UniProt P40460 1-691)

binding [1]: binds
Molecule: Smc3 (from UniProt P47037 1-1230)

binding [1]: binds
Molecule: Mif2 (from UniProt P35201 1-549)

binding [2]: binds
B1: Ipl1, P38991 1-367 (enzyme)
chain: MQRNSLVNIKLNANSPSKKTTTRPNTSRINKPWRISHSPQQRNPNSKIPSPVREKLNRLPVNNKKFLDMESSKIPSPIRKATSSKMIHENKKLPKFKSLSLDDFELGKKLGKGKFGKVYCVRHRSTGYICALKVMEKEEIIKYNLQKQFRREVEIQTSLNHPNLTKSYGYFHDEKRVYLLMEYLVNGEMYKLLRLHGPFNDILASDYIYQIANALDYMHKKNIIHRDIKPENILIGFNNVIKLTDFGWSIINPPENRRKTVCGTIDYLSPEMVESREYDHTIDAWALGVLAFELLTGAPPFEEEMKDTTYKRIAALDIKMPSNISQDAQDLILKLLKYDPKDRMRLGDVKMHPWILRNKPFWENKRL
